Laboratory results reported in the supplement of paper PMC12823440, “Inhibitors supercharge kinase turnover through native proteolytic circuits” (Nature, 2025).
Structures can show the parent of a compound that is named as a salt. The list shows a part of the results. Hit calls seldom repeat between salt and free forms of one compound.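 In K562 cells expressing nanoluciferase-fused kinases, luminescence was recorded at 4 h intervals between 2 and 18 h, normalized as percent of control with DMSO at 100% and a positive control at 0%. A significant (2 sigma) signal drop marks a time point as decreased. The authors' rule for a hit is not shown and takes in more than the number of time points.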

The chains behind the UniProt entries cited, without tags or fusion partners. Where a name states a change or a piece, a line headed by the entry shows the natural chain unless it says otherwise.
UniProt P00519, whole entry: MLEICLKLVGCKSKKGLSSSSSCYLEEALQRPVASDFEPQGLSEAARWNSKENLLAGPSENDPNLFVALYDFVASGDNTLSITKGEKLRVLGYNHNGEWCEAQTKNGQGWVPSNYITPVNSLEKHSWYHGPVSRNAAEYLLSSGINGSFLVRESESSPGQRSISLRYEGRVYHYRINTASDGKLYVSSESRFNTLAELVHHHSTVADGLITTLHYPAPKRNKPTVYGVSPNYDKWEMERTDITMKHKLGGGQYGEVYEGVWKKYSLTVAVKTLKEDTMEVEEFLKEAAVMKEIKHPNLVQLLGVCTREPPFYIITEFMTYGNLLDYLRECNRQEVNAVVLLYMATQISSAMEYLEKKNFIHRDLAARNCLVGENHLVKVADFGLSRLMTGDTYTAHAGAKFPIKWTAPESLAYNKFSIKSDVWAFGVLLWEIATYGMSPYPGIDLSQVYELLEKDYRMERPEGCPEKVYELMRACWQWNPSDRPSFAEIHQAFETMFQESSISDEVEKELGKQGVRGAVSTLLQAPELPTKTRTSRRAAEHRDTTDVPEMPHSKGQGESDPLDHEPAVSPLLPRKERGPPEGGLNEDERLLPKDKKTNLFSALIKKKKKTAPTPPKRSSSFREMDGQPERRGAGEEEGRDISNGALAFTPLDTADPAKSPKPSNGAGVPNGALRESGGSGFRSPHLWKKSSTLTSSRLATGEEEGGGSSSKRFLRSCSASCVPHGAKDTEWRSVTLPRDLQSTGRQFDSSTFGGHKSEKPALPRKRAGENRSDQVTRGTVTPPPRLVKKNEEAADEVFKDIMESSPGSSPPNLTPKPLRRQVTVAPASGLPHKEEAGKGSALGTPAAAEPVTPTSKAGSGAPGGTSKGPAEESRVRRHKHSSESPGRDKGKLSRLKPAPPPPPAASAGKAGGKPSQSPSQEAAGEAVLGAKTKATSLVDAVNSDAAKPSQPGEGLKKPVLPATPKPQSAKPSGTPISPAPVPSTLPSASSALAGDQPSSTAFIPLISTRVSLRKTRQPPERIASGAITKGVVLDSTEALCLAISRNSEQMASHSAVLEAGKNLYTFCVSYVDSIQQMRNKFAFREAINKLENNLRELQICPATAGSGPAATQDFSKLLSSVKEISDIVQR
UniProt P31749: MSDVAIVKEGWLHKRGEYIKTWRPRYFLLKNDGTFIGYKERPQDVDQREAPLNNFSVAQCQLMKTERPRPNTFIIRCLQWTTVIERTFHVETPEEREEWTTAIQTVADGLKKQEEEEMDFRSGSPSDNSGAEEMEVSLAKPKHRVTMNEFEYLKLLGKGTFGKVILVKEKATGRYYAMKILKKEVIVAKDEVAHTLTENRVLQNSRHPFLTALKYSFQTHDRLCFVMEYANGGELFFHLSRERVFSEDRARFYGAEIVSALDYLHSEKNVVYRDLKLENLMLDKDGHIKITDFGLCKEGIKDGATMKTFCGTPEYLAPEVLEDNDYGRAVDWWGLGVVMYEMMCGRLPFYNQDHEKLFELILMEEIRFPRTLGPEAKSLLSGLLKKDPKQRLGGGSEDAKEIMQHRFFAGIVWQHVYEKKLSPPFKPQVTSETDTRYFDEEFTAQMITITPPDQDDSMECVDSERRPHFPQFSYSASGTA
UniProt Q9UM73: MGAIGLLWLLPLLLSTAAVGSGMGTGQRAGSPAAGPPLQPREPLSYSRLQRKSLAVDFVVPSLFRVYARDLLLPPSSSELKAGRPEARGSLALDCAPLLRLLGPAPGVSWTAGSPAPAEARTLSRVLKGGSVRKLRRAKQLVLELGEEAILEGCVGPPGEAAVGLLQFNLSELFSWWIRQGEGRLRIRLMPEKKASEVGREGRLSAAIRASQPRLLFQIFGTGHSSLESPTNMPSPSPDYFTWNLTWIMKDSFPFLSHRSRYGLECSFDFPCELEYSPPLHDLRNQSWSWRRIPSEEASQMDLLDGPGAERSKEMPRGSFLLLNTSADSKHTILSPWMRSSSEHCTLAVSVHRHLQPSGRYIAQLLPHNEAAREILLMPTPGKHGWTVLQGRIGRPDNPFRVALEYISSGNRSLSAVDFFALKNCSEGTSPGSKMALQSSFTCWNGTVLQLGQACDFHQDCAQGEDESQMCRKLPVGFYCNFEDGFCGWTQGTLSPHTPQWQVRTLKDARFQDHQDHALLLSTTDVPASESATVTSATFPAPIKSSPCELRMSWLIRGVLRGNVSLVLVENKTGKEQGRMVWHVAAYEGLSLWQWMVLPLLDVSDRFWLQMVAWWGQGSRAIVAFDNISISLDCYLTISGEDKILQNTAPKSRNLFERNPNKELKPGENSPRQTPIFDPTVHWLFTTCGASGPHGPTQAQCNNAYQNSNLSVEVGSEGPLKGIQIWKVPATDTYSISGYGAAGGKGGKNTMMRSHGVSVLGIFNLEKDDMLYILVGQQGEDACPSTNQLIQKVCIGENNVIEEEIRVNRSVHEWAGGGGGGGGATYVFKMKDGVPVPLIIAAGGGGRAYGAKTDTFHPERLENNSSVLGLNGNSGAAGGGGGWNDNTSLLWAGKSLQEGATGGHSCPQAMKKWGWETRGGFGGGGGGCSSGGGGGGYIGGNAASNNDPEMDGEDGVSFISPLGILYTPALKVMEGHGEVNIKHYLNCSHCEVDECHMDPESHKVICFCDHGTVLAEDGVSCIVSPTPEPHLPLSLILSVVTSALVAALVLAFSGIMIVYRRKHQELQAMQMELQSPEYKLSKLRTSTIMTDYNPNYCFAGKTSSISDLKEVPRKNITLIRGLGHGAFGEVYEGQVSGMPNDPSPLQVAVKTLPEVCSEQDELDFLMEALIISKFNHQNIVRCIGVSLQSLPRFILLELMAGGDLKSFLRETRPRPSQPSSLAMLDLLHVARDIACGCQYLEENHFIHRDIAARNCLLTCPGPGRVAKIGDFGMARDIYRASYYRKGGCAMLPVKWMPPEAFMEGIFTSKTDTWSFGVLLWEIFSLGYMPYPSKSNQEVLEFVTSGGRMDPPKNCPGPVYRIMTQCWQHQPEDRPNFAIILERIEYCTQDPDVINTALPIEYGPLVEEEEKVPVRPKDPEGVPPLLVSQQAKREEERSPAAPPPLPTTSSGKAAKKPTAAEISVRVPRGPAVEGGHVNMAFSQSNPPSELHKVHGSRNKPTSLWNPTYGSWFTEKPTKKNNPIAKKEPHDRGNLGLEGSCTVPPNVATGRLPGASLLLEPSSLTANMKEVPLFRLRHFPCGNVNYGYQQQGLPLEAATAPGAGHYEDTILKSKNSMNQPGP
UniProt P10398: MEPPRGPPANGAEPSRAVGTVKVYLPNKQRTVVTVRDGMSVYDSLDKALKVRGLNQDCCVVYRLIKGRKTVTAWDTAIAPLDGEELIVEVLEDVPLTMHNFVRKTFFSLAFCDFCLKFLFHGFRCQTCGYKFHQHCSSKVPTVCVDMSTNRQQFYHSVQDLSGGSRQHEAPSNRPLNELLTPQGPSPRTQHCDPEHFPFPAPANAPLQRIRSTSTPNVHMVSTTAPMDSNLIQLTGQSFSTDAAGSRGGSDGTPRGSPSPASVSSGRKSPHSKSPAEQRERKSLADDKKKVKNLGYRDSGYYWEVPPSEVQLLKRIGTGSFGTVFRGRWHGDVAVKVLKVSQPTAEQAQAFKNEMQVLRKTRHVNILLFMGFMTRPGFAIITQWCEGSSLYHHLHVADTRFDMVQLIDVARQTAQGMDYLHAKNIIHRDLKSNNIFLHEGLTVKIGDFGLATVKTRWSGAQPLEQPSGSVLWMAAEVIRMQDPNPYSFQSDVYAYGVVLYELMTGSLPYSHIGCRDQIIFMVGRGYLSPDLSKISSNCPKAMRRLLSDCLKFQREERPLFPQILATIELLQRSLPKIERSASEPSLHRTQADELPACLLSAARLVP
UniProt O14965: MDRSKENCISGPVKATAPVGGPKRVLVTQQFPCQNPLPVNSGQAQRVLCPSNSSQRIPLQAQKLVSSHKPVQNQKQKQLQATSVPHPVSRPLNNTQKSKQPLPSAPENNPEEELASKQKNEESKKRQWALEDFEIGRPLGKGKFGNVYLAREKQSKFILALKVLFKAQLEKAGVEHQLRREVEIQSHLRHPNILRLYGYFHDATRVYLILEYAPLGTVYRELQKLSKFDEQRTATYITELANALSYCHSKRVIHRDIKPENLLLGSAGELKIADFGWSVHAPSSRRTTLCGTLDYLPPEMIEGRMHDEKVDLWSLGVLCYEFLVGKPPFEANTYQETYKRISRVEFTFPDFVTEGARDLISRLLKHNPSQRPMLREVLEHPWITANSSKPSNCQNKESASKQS
UniProt Q96GD4, whole entry: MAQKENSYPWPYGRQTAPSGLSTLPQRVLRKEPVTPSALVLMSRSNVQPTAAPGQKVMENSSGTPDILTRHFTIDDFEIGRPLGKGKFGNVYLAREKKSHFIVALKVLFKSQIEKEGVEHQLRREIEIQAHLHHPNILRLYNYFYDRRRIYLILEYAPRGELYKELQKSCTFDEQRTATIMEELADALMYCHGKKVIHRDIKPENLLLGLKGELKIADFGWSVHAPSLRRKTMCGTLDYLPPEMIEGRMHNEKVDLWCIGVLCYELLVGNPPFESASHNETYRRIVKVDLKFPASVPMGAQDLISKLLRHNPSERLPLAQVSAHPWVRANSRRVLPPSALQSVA
UniProt Q9UQB9: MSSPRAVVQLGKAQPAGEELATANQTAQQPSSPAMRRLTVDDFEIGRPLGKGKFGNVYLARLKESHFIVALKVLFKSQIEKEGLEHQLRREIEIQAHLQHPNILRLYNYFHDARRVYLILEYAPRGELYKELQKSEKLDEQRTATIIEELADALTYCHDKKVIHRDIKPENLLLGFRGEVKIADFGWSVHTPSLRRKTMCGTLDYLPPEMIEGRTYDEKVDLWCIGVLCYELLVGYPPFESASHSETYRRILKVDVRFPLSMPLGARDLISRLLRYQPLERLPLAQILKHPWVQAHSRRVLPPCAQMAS
UniProt P51451: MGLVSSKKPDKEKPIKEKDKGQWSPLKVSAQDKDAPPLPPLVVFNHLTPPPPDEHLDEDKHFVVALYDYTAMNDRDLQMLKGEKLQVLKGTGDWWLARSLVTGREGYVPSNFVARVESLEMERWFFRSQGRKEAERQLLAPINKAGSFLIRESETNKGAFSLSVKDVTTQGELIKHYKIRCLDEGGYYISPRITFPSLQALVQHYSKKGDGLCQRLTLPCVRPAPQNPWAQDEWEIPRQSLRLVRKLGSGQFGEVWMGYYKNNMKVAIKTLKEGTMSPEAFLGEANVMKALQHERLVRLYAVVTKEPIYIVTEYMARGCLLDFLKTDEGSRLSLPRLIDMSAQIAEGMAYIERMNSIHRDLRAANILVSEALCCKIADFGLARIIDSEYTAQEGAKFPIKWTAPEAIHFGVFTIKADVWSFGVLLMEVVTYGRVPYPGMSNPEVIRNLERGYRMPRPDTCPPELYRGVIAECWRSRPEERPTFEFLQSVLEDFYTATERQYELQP
UniProt P15056, whole entry, looked up: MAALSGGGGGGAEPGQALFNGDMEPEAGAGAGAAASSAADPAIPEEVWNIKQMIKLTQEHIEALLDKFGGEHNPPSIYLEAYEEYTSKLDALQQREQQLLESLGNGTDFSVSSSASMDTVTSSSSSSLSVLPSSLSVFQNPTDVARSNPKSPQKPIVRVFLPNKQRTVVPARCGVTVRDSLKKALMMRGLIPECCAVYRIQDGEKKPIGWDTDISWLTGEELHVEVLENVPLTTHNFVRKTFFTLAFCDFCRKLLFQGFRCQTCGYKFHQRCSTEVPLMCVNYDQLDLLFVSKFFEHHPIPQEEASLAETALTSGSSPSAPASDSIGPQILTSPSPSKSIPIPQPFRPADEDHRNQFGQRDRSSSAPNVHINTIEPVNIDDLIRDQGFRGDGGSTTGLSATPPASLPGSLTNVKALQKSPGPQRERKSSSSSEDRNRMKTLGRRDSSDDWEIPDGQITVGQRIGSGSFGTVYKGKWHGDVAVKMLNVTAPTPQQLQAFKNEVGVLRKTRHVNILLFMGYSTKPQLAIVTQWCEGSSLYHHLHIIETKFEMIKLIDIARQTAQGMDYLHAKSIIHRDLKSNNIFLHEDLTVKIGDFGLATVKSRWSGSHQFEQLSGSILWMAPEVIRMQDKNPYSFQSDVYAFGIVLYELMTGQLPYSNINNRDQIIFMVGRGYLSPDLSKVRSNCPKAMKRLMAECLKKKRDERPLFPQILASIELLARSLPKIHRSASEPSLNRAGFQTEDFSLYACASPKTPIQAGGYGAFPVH

Columns and labels:
Assay in all cases: kinase-Nluc reporter destabilization hit call (1 = scored as downregulated) (binary); higher = compound decreases kinase abundance
Details in all cases: K562; 2-18 h
ABL1 = ABL1 (UniProt P00519)
AKT1 = AKT1 (UniProt P31749)
ALK = ALK (UniProt Q9UM73)
ARAF = ARAF (UniProt P10398)
AURKA = AURKA (UniProt O14965)
AURKB = AURKB (UniProt Q96GD4)
AURKC = AURKC (UniProt Q9UQB9)
BLK = BLK (UniProt P51451)
BMX = BMX (UniProt P51813)
BRAF = BRAF (UniProt P15056)

SMILES	kinase-Nluc reporter destabilization hit call (ABL1)	kinase-Nluc reporter destabilization hit call (AKT1)	kinase-Nluc reporter destabilization hit call (ALK)	kinase-Nluc reporter destabilization hit call (ARAF)	kinase-Nluc reporter destabilization hit call (AURKA)	kinase-Nluc reporter destabilization hit call (AURKB)	kinase-Nluc reporter destabilization hit call (AURKC)	kinase-Nluc reporter destabilization hit call (BLK)	kinase-Nluc reporter destabilization hit call (BMX)	kinase-Nluc reporter destabilization hit call (BRAF)
CC(C)CNc1ccnc(NCc2csc(-c3ccccc3)n2)n1 [KHS101 hydrochloride] (2.5 µM)	inactive: 0	inactive: 0	inactive: 0	inactive: 0	inactive: 0	inactive: 0	inactive: 0	inactive: 0	inactive: 0	inactive: 0
CCN(CC)CCC(=O)N1N=C(c2c(-c3ccccc3)c3cc(Br)ccc3[nH]c2=O)CC1c1ccc(Br)cc1 (stereo not given) (2.5 µM)	inactive: 0	inactive: 0	inactive: 0	inactive: 0	active: 1	active: 1	inactive: 0	inactive: 0	inactive: 0	inactive: 0
O=Nc1c2[nH]c3ccccc3nc-2c2ccccc12 [IQ-1S (free acid)] (2.5 µM)	inactive: 0	inactive: 0	inactive: 0	inactive: 0	inactive: 0	inactive: 0	inactive: 0	inactive: 0	inactive: 0	inactive: 0
C#Cc1cccc(Nc2ncnc3cc(OC)c(OCCCCCCC(=O)NO)cc23)c1 (2.5 µM)	inactive: 0	inactive: 0	inactive: 0	inactive: 0	inactive: 0	inactive: 0	inactive: 0	inactive: 0	inactive: 0	inactive: 0
CNC(=O)c1cc2c(Oc3ccc(NC(=S)NC(=O)Cc4ccccc4)cc3F)ccnc2cc1OC [TAS-115 mesylate] (10 µM)	inactive: 0	inactive: 0	inactive: 0	inactive: 0	inactive: 0	inactive: 0	inactive: 0	inactive: 0	inactive: 0	inactive: 0
CC(C)S(=O)(=O)c1ccc2nccc(Nc3ccc4scnc4c3)c2c1 (10 µM)	inactive: 0	inactive: 0	inactive: 0	inactive: 0	inactive: 0	inactive: 0	inactive: 0	inactive: 0	inactive: 0	inactive: 0
CCN(CC)c1ccc2cc(-c3nc4cc(C)ccc4o3)c(=O)oc2c1 (10 µM)	inactive: 0	inactive: 0	inactive: 0	inactive: 0	inactive: 0	inactive: 0	inactive: 0	inactive: 0	inactive: 0	inactive: 0
Cc1ccc(-c2csc3ncnc(SCCC(=O)O)c23)cc1 (10 µM)	inactive: 0	inactive: 0	inactive: 0	inactive: 0	inactive: 0	inactive: 0	inactive: 0	inactive: 0	inactive: 0	inactive: 0
O=C1/C(=C\c2ccc(Cl)cc2)C=C(c2ccccc2)N1c1ccc(O)cc1 (2.5 µM)	inactive: 0	inactive: 0	inactive: 0	inactive: 0	inactive: 0	inactive: 0	inactive: 0	inactive: 0	inactive: 0	inactive: 0
CCN(CC)c1cc2oc(=O)c(-c3nc4ccccc4o3)cc2cc1C (2.5 µM)	inactive: 0	inactive: 0	inactive: 0	inactive: 0	inactive: 0	inactive: 0	inactive: 0	inactive: 0	inactive: 0	inactive: 0
O=C(Nc1nc(=O)n(Cc2ccc(Cl)cc2)s1)c1ccc(Cl)cc1 (10 µM)	inactive: 0	inactive: 0	inactive: 0	inactive: 0	inactive: 0	inactive: 0	inactive: 0	inactive: 0	inactive: 0	inactive: 0
Oc1ccc(/C=C/c2cc(O)cc(F)c2)cc1 [Resveratrol analog 1] (10 µM)	inactive: 0	inactive: 0	inactive: 0	inactive: 0	inactive: 0	inactive: 0	inactive: 0	inactive: 0	inactive: 0	inactive: 0
Cn1ncc2cc(-c3cnc(N)c(Cl)c3N3CCC4(CCNC4=O)CC3)ccc21 (10 µM)	inactive: 0	inactive: 0	inactive: 0	inactive: 0	inactive: 0	inactive: 0	inactive: 0	inactive: 0	inactive: 0	inactive: 0
CCc1cccc(CC)c1NC(=O)N1Cc2[nH]nc(NC(=O)c3ccc(N4CCN(C)CC4)cc3)c2C1 (2.5 µM)	inactive: 0	inactive: 0	inactive: 0	inactive: 0	inactive: 0	inactive: 0	inactive: 0	inactive: 0	inactive: 0	inactive: 0
O=C(Nc1cccc(C(F)(F)F)c1)c1cccc2cc(Oc3cc(CO)ncn3)ccc12 (10 µM)	inactive: 0	inactive: 0	inactive: 0	inactive: 0	inactive: 0	inactive: 0	inactive: 0	inactive: 0	inactive: 0	inactive: 0
Cn1cc(C2=C(c3cn(CCCSC(=N)N)c4ccccc34)C(=O)NC2=O)c2ccccc21 [Ro 31-8220 (mesylate)] (2.5 µM)	inactive: 0	inactive: 0	inactive: 0	inactive: 0	inactive: 0	inactive: 0	inactive: 0	inactive: 0	inactive: 0	inactive: 0
CC(C)(C)n1nc(Cc2ccccc2O)c2c(N)ncnc21 (10 µM)	inactive: 0	inactive: 0	inactive: 0	inactive: 0	inactive: 0	inactive: 0	inactive: 0	inactive: 0	inactive: 0	inactive: 0
Nc1nc(N)c2nc(-c3cccc(O)c3)cnc2n1 (10 µM)	inactive: 0	inactive: 0	inactive: 0	inactive: 0	inactive: 0	inactive: 0	inactive: 0	inactive: 0	inactive: 0	inactive: 0
O=C1NC(=O)/C(=C/c2ccc3nccc(-c4ccncc4)c3c2)S1 (10 µM)	active: 1	inactive: 0	inactive: 0	inactive: 0	inactive: 0	inactive: 0	inactive: 0	inactive: 0	inactive: 0	inactive: 0
CC[C@@](C)(Nc1ccnc(-c2c[nH]c3ncccc23)n1)C(=O)NCC(F)(F)F [Decernotinib] (10 µM)	inactive: 0	inactive: 0	inactive: 0	inactive: 0	inactive: 0	inactive: 0	inactive: 0	inactive: 0	inactive: 0	inactive: 0
C[C@@H]1CCNC(=O)c2cc3ccc(C(=O)Nc4nc5ccccc5n4CCCN(C)C)cc3n21 (10 µM)	inactive: 0	inactive: 0	inactive: 0	inactive: 0	inactive: 0	inactive: 0	inactive: 0	inactive: 0	inactive: 0	inactive: 0
C[C@@H]1CC(=O)c2c(ccc3c2C(=O)c2cccc(O)c2C3=O)C1 [Ochromycinone] (10 µM)	inactive: 0	inactive: 0	inactive: 0	inactive: 0	inactive: 0	inactive: 0	inactive: 0	inactive: 0	inactive: 0	inactive: 0
Cc1ccc(C(=O)Nc2sc(Nc3ccccc3)nc2C(N)=O)cc1 (10 µM)	inactive: 0	inactive: 0	inactive: 0	inactive: 0	inactive: 0	inactive: 0	inactive: 0	inactive: 0	inactive: 0	inactive: 0
CC(C)(O)[C@H]1CC[C@H](Nc2ccc3ncc(-c4cccc(C(F)(F)F)c4)n3n2)CC1 (10 µM)	inactive: 0	inactive: 0	inactive: 0	inactive: 0	inactive: 0	inactive: 0	inactive: 0	inactive: 0	inactive: 0	inactive: 0
COc1cc2ncnc(-n3nc(-c4ccccn4)nc3N)c2cc1OC (10 µM)	inactive: 0	inactive: 0	inactive: 0	inactive: 0	inactive: 0	inactive: 0	inactive: 0	inactive: 0	inactive: 0	inactive: 0
c1ccc(-c2nc(=NCCN3CCOCC3)sn2-c2ccccc2)cc1 [VP3.15 (dihydrobromide)] (10 µM)	inactive: 0	inactive: 0	inactive: 0	inactive: 0	inactive: 0	inactive: 0	inactive: 0	inactive: 0	inactive: 0	inactive: 0
CC(C)C[C@@H](C(=O)Nc1ccn(C[C@@H](O)CO)n1)N1CC(Oc2ccccc2Cl)=CC1=O [Dorzagliatin] (10 µM)	inactive: 0	inactive: 0	inactive: 0	inactive: 0	inactive: 0	inactive: 0	inactive: 0	inactive: 0	inactive: 0	inactive: 0
CNc1nc(Nc2cn(C(C)(C)C#N)nc2C)ncc1C(F)(F)F (10 µM)	inactive: 0	inactive: 0	inactive: 0	inactive: 0	inactive: 0	inactive: 0	inactive: 0	inactive: 0	inactive: 0	inactive: 0
FC(F)(F)c1ccc(/C=C/c2nc(COc3ccc(CCCCn4ccnn4)cc3)co2)cc1 [Mubritinib] (10 µM)	inactive: 0	inactive: 0	inactive: 0	inactive: 0	inactive: 0	inactive: 0	inactive: 0	inactive: 0	inactive: 0	inactive: 0
CS(=O)(=O)c1ccc(-c2cnc(N)c(-c3ccc(C(F)(F)F)nc3)c2)cc1 (10 µM)	inactive: 0	inactive: 0	inactive: 0	inactive: 0	inactive: 0	inactive: 0	inactive: 0	inactive: 0	inactive: 0	inactive: 0

Given as a markdown table: 2 of the compounds above

| SMILES | kinase-Nluc reporter destabilization hit call (ABL1) | kinase-Nluc reporter destabilization hit call (AKT1) | kinase-Nluc reporter destabilization hit call (ALK) | kinase-Nluc reporter destabilization hit call (ARAF) | kinase-Nluc reporter destabilization hit call (AURKA) | kinase-Nluc reporter destabilization hit call (AURKB) | kinase-Nluc reporter destabilization hit call (AURKC) | kinase-Nluc reporter destabilization hit call (BLK) | kinase-Nluc reporter destabilization hit call (BMX) | kinase-Nluc reporter destabilization hit call (BRAF) |
| --- | --- | --- | --- | --- | --- | --- | --- | --- | --- | --- |
| CC(C)(C)n1nc(Cc2ccccc2O)c2c(N)ncnc21 (10 µM) | inactive: 0 | inactive: 0 | inactive: 0 | inactive: 0 | inactive: 0 | inactive: 0 | inactive: 0 | inactive: 0 | inactive: 0 | inactive: 0 |
| Nc1nc(N)c2nc(-c3cccc(O)c3)cnc2n1 (10 µM) | inactive: 0 | inactive: 0 | inactive: 0 | inactive: 0 | inactive: 0 | inactive: 0 | inactive: 0 | inactive: 0 | inactive: 0 | inactive: 0 |
